According to the supplement of paper PMC10849652:
Some of the results follow.

Protein sequences, listed by entry. Tags and fused reporters are not part of them. Lines headed by an entry give the natural chain unless they say otherwise; changes in a name come on top.
UniProt Q9BT25: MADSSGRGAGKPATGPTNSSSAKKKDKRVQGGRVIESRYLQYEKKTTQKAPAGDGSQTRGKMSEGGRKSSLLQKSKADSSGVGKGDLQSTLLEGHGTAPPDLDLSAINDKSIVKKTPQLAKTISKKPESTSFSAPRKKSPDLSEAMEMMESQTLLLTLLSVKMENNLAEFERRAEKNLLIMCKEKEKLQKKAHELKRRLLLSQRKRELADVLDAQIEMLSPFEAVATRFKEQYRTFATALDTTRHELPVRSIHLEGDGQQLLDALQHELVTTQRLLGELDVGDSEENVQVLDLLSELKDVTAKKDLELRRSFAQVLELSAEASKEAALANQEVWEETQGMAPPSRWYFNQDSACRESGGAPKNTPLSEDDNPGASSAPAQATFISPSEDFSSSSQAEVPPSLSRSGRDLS
UniProt P69891: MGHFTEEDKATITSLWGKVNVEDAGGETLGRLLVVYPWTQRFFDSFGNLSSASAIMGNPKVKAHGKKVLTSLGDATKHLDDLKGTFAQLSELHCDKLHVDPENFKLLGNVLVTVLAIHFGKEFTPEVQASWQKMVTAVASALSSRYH
UniProt P02724: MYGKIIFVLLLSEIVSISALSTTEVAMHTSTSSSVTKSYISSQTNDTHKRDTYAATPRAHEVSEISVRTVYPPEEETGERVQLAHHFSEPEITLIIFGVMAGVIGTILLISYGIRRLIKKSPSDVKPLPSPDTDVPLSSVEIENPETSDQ
UniProt Q9HAV7: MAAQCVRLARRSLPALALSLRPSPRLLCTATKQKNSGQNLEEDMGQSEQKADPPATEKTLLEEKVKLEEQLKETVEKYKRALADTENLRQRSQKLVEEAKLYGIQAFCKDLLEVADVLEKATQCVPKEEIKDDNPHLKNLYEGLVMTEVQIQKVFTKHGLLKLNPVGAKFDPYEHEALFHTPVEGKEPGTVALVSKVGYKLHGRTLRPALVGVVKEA
UniProt P13984, whole entry, looked up: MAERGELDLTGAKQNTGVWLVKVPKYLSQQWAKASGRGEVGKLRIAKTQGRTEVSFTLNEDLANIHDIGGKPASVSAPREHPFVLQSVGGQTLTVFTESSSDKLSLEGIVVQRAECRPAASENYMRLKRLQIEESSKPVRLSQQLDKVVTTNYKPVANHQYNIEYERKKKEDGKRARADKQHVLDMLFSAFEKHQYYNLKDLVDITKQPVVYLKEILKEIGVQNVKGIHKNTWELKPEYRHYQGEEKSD
UniProt Q92759: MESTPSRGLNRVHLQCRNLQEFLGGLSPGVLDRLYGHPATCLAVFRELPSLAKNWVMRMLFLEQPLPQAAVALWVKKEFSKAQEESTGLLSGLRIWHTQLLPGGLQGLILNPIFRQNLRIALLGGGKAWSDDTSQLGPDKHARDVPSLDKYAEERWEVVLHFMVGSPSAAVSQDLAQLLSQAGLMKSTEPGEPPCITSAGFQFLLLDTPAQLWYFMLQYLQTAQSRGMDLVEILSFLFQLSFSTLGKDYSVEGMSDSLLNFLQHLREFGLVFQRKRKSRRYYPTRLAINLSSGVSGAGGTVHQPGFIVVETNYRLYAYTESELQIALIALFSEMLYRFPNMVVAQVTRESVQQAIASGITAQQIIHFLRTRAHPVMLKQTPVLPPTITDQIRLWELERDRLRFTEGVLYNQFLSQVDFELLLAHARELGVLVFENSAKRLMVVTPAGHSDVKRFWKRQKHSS
UniProt Q12789: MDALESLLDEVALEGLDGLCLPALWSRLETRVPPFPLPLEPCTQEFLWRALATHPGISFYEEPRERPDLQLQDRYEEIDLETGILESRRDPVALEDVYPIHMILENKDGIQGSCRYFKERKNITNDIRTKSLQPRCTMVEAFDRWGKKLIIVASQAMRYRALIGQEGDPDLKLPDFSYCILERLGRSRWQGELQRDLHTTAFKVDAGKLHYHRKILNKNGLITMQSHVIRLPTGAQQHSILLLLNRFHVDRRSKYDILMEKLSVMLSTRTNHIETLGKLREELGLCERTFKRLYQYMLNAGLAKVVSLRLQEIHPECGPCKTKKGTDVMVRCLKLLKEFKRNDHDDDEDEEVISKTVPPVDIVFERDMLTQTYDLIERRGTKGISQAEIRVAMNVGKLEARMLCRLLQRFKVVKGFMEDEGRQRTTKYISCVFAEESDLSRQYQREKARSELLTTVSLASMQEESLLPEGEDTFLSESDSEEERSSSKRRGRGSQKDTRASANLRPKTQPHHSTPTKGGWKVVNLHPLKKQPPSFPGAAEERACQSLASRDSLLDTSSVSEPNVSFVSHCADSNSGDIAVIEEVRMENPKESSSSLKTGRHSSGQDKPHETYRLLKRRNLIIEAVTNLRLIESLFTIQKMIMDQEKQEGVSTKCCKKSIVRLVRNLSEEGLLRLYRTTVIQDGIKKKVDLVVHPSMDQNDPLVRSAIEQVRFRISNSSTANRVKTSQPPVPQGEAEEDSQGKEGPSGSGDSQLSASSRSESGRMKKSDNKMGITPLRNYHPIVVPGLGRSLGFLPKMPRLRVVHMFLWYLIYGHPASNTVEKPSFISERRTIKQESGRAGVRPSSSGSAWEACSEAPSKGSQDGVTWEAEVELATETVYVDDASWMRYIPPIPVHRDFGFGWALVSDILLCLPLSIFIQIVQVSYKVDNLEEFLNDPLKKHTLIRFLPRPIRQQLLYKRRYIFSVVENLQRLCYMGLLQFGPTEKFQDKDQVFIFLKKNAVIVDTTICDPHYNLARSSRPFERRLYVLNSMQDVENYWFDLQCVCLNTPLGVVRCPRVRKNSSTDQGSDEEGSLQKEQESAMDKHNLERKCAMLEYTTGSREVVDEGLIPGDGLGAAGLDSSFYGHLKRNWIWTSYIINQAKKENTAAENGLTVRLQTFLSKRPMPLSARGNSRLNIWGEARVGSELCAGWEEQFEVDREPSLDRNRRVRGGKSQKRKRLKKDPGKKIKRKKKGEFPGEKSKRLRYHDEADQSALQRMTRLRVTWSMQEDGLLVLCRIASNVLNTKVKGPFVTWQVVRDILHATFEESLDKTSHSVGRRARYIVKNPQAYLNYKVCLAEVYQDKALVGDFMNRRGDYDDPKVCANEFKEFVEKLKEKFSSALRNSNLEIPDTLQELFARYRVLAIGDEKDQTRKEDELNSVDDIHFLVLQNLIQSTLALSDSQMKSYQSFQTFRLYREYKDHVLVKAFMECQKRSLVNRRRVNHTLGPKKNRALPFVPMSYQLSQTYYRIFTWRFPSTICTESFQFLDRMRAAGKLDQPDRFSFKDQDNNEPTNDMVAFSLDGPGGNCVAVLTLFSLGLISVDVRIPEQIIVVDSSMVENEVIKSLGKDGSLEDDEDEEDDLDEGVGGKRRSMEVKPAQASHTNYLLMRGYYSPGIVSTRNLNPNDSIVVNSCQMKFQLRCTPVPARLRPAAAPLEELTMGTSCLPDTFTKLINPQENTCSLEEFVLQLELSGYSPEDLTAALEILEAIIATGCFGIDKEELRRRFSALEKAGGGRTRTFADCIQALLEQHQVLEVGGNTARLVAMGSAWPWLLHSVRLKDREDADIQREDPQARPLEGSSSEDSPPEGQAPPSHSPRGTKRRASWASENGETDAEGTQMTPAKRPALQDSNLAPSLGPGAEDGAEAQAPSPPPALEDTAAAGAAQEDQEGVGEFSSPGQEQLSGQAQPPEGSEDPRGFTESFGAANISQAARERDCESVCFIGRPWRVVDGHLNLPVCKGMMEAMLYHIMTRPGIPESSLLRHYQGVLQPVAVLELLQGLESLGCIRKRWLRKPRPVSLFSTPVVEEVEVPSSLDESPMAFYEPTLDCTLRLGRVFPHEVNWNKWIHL
UniProt P06396, whole entry, looked up: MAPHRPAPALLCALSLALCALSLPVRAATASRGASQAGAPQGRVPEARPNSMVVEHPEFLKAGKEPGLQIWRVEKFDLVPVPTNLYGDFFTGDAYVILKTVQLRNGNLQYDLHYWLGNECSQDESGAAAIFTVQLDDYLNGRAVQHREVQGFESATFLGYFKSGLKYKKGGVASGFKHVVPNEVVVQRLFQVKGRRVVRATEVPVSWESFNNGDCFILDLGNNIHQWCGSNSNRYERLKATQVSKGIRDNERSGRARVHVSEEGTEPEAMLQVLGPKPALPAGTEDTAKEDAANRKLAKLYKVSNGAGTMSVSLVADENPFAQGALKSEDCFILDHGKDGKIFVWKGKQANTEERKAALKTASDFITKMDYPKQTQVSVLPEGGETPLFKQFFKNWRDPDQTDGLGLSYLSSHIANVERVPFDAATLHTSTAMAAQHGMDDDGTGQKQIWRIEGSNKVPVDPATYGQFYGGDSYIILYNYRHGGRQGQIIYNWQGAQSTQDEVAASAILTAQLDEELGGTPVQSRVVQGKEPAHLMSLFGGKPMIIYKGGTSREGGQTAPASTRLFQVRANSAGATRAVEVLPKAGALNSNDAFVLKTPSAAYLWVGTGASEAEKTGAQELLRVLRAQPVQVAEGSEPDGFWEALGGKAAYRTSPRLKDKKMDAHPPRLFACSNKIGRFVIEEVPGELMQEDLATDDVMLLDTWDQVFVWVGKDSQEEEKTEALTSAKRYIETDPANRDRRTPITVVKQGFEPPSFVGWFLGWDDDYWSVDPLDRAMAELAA
UniProt P28161: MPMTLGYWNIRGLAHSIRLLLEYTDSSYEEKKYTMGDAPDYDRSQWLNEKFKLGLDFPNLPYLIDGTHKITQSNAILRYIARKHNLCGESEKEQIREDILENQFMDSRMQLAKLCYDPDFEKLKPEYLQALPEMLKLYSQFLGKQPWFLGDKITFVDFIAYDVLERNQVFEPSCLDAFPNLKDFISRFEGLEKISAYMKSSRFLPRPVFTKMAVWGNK
UniProt Q9UQL6: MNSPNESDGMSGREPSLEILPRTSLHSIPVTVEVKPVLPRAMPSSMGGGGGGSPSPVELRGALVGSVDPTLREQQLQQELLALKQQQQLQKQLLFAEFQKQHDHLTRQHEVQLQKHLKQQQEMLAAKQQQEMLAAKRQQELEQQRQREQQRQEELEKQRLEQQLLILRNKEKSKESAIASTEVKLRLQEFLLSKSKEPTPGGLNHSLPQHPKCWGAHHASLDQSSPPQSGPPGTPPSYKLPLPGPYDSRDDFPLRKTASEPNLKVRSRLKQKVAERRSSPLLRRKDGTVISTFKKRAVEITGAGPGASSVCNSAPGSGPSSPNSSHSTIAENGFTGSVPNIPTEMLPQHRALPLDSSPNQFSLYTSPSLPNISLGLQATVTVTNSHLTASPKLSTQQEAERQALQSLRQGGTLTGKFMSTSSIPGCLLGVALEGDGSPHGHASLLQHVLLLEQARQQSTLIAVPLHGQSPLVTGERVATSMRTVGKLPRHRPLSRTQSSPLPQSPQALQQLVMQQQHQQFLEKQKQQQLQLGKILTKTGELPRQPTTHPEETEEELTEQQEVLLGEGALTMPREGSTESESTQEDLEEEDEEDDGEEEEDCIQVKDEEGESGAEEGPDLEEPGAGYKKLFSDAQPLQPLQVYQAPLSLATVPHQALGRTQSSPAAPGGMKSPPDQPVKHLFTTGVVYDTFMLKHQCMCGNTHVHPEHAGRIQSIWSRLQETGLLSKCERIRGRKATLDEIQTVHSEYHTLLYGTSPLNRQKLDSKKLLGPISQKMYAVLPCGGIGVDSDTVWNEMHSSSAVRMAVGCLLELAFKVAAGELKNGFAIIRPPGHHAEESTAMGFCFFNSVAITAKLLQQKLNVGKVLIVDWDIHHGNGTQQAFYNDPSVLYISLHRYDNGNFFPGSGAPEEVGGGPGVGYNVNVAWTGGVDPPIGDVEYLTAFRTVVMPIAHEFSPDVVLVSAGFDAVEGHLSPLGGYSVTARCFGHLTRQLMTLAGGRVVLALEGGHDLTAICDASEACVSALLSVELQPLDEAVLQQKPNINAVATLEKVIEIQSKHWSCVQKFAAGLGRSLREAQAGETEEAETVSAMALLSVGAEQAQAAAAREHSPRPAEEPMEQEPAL
UniProt P10412, whole entry, looked up: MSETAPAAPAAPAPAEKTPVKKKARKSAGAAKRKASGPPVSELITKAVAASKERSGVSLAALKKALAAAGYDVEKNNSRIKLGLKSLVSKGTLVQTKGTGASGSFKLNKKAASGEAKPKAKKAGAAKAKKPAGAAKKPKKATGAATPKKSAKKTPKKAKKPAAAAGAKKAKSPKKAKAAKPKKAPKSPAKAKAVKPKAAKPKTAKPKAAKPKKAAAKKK
UniProt P30711: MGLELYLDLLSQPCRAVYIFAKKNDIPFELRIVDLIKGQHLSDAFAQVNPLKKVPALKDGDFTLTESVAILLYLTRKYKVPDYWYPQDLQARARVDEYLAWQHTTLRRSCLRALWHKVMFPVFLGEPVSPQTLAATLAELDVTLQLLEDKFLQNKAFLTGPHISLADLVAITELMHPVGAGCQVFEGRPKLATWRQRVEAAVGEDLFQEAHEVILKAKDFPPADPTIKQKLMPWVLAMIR
UniProt Q9H0R4: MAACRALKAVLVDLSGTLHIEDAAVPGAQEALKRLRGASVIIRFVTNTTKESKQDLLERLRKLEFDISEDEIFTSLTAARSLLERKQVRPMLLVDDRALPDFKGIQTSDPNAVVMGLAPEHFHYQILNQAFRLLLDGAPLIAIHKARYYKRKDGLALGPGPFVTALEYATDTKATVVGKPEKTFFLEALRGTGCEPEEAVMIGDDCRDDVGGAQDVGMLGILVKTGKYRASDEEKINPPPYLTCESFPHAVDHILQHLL

Assays:
Assay in all cases: log2 fold change, soluble protein after heating vs DMSO (PISA); higher = thermal stabilisation; K562 lysate, 10 uM; active = over 0.2 and 3.5 SD of the protein, either way, in both replicates (recomputed)
erlotinib = compound: C#Cc1cccc(Nc2ncnc3cc(OCCOC)c(OCCOC)cc23)c1 [erlotinib]
In short: (§1)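 Dounce homogenisation of K562 pellets in PBS pH 7.4 with 1 mM MgCl2 produced a crude extract, used at 1 mg/mL protein. Exposure to 10 μM compound lasted 30 min, and aliquots were then heated for 3 min across 48°C-58°C, pooled and brought to 0.5% NP-40 at 4°C. The supernatant after 21,000xg for 90 min was quantified by TMTpro 16plex LC-MS/MS with channel sums equalised. Duplicate values are given as log-two fold change in thermal stability relative to solvent controls.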

[1] = compound: C/C(=N\NC(=O)C1=CC(=CC=C1)S(=O)(=O)N2CCOCC2)/C3=C(C=CC(=C3)Cl)O
In short: as §1

[2] = compound: C1=CC(=CC=C1C2=NC3=C(N2)C=C(C=C3)C(=O)N)OC4=CC=C(C=C4)Cl
In short: as §1

[3] = compound: C1=CC2=C(C=CC(=C2)/C=C\3/C(=O)NC(=NCC4=CC=CS4)S3)N=C1
In short: as §1

[4] = compound: C1=CC2=NC=CN=C2C=C1/C=C/3\C(=O)NC(=O)S3
In short: as §1

[5] = compound: C1=CC=C(C=C1)C2=NC(=C(N2)C3=CC=NC=C3)C4=CC(=C(C=C4)Cl)O
In short: as §1

[6] = compound: C1=CC=C2C(=C1)C3=NNC4=CC=CC(=C43)C2=O
In short: as §1

[7] = compound: C1CCN(C1)C(=O)NC2=CC=CC(=C2)NC3=NC=C(C(=N3)NCCC4=CN=CN4)Br
In short: as §1

[8] = compound: C1CN(CCC1(CC2=CC=C(C=C2)Cl)N)C3=NC=NC4=C3C=CN4
In short: as §1

IRAK-1-4 Inhibitor I = compound: C1COCCN1CCN2C3=CC=CC=C3N=C2NC(=O)C4=CC(=CC=C4)[N+](=O)[O-] [IRAK-1-4 Inhibitor I]
In short: as §1

ibrutinib = compound: C=CC(=O)N1CCC[C@@H](n2nc(-c3ccc(Oc4ccccc4)cc3)c3c(N)ncnc32)C1 [ibrutinib]
In short: as §1

[9] = compound: CC(=O)c1cnc2ccc(-c3cc(Cl)c(O)c(Cl)c3)nc2c1N[C@H]1CC[C@H](CN(C)C)CC1
In short: as §1

ralimetinib = compound: CC(C)(C)Cn1c(N)nc2ccc(-c3[nH]c(C(C)(C)C)nc3-c3ccc(F)cc3)nc21 [ralimetinib]
In short: as §1

[10] = compound: CC(C)(O)CC(=O)NCCn1ccc2ncnc(Nc3ccc(Oc4cccc(C(F)(F)F)c4)c(Cl)c3)c21
In short: as §1

[11] = compound: CC(C)C1=C2N=C(C=C(N2N=C1)NCC3=CC=CC=C3)NCCCCCCN
In short: as §1

[12] = compound: CC1=C(C(CC(=O)N1)C2=CC=C(C=C2)C(F)(F)F)C(=O)NC3=C(C=C4C(=C3)C=NN4)F
In short: as §1

[13] = compound: CC1=C(C2=C(C=C1)C(=O)C3=CC=CC=C3N2CCCN)C
In short: as §1

[14] = compound: CC1=C(C=C(C=C1)NC(=O)C2=CC(=CC=C2)C(C)(C)C#N)NC3=CC4=C(C=C3)N=CN(C4=O)C
In short: as §1

[15] = compound: CC1=C(C=C(C=C1)NC(=O)C2=CC(=CC=C2)N(C)C)NC(=O)C3=CC=C(C=C3)O
In short: as §1

[16] = compound: CC1=CC=C(C=C1)SC2=C3C=C(SC3=CN=C2)C(=O)N
In short: as §1

Measured: log2 fold change

HAUS8 (UniProt Q9BT25)
inactive: erlotinib 0.007 | [1] -0.007 | [2] 0.007 | [3] 0.016 | [4] -0.06 | [5] -0.029 | [6] 0.142 | [7] 0.001 | [8] 0.062 | IRAK-1-4 Inhibitor I 0.015 | ibrutinib 0.049 | [9] -0.01 | ralimetinib 0.054 | [10] 0.011 | [11] -0.012 | [12] -0.044 | [13] -0.062 | [14] 0.003 | [15] 0.033 | [16] 0.036

HBG1 (UniProt P69891)
inactive: erlotinib 0 | [1] -0.008 | [2] -0.022 | [3] 0.054 | [4] 0.015 | [5] -0.014 | [6] 0.047 | [7] 0.018 | [8] 0.067 | IRAK-1-4 Inhibitor I -0.017 | ibrutinib 0.062 | [9] -0.007 | ralimetinib -0.003 | [10] -0.027 | [11] -0.014 | [12] -0.053 | [13] 0.006 | [14] 0.068 | [15] -0.013 | [16] 0.019

GYPA (UniProt P02724)
inactive: erlotinib -0.109 | [1] -0.107 | [2] 0.13 | [3] 0.061 | [4] 0.059 | [5] 0.023 | [6] 0.048 | [7] -0.004 | [8] 0.043 | IRAK-1-4 Inhibitor I 0.017 | ibrutinib 0.318 | [9] 0.102 | ralimetinib -0.052 | [10] 0.054 | [11] -0.095 | [13] -0.085 | [14] 0.018 | [15] -0.037 | [16] -0.034

HAUS5 (UniProt O94927)
inactive: erlotinib 0.046 | [1] 0.021 | [2] -0.071 | [3] -0.015 | [4] -0.045 | [5] -0.009 | [6] 0.113 | [7] 0.031 | [8] -0.017 | IRAK-1-4 Inhibitor I 0.033 | ibrutinib 0 | [9] 0.002 | ralimetinib 0.034 | [10] 0.017 | [11] 0.027 | [12] -0.027 | [13] 0 | [14] 0 | [15] 0.033 | [16] 0.021

GRPEL1 (UniProt Q9HAV7)
inactive: erlotinib 0 | [1] -0.022 | [2] 0.024 | [3] -0.015 | [4] 0.018 | [5] 0.003 | [6] 0.011 | [7] -0.004 | [8] 0.019 | IRAK-1-4 Inhibitor I -0.004 | ibrutinib 0.049 | [9] -0.006 | ralimetinib -0.016 | [10] -0.011 | [11] -0.004 | [12] -0.018 | [13] -0.005 | [14] -0.01 | [15] -0.015 | [16] -0.004

GTF2F2 (UniProt P13984)
inactive: erlotinib -0.011 | [1] 0.037 | [2] 0.028 | [3] 0.008 | [4] -0.042 | [5] 0.009 | [6] 0.015 | [7] 0.011 | [8] -0.004 | IRAK-1-4 Inhibitor I -0.008 | ibrutinib -0.007 | [9] -0.013 | ralimetinib -0.01 | [10] 0 | [11] 0.015 | [12] -0.042 | [13] -0.019 | [14] -0.013 | [15] -0.004 | [16] 0.002

GTF2H4 (UniProt Q92759)
inactive: erlotinib -0.013 | [1] -0.049 | [2] -0.013 | [3] 0.037 | [4] -0.059 | [5] -0.001 | [6] 0.141 | [7] 0.056 | [8] -0.004 | IRAK-1-4 Inhibitor I -0.044 | ibrutinib 0.039 | [9] 0.003 | ralimetinib 0.058 | [10] -0.006 | [11] 0.021 | [12] 0.054 | [13] -0.014 | [14] -0.015 | [15] 0.052 | [16] 0.037

GTF3C1 (UniProt Q12789)
inactive: erlotinib -0.003 | [1] 0.014 | [2] -0.013 | [3] -0.037 | [4] 0.002 | [5] -0.016 | [6] -0.052 | [7] -0.032 | [8] 0.014 | IRAK-1-4 Inhibitor I -0.004 | ibrutinib -0.036 | [9] 0.014 | ralimetinib 0.045 | [10] 0.009 | [11] -0.019 | [12] -0.009 | [13] -0.025 | [14] 0.034 | [15] 0.04 | [16] -0.005

GSN (UniProt P06396)
inactive: erlotinib -0.024 | [1] 0.148 | [2] 0.009 | [3] -0.006 | [4] -0.013 | [5] 0 | [6] -0.013 | [7] -0.019 | [8] -0.058 | IRAK-1-4 Inhibitor I -0.042 | ibrutinib 0.007 | [9] -0.013 | ralimetinib -0.012 | [10] 0.03 | [11] 0.053 | [12] 0.085 | [13] -0.043 | [14] -0.003 | [15] 0.027 | [16] -0.012

GSTM2 (UniProt P28161)
inactive: erlotinib -0.083 | [1] 0.041 | [2] -0.038 | [3] -0.007 | [4] 0.079 | [5] -0.008 | [6] -0.012 | [7] -0.021 | [8] -0.054 | IRAK-1-4 Inhibitor I 0.037 | ibrutinib 0.081 | [9] 0.009 | ralimetinib -0.006 | [10] -0.067 | [11] -0.021 | [12] -0.119 | [13] -0.033 | [15] 0.004 | [16] -0.021

HDAC5 isoform 3 (UniProt Q9UQL6)
inactive: erlotinib 0.042 | [1] 0.008 | [2] 0.044 | [3] 0.011 | [4] -0.04 | [5] 0.061 | [6] -0.097 | [7] -0.011 | [8] 0.036 | IRAK-1-4 Inhibitor I 0.011 | ibrutinib 0.006 | [9] 0.022 | ralimetinib -0.069 | [10] -0.057 | [11] 0.02 | [12] 0.098 | [13] 0.001 | [14] 0.025 | [15] -0.029 | [16] 0.091

Quoted from the entries so far (2 entries):
GTF2F2 (UniProt P13984)
inactive: erlotinib -0.011 | [1] 0.037 | [2] 0.028 | [3] 0.008 | [4] -0.042 | [5] 0.009 | [6] 0.015 | [7] 0.011 | [8] -0.004 | IRAK-1-4 Inhibitor I -0.008 | ibrutinib -0.007 | [9] -0.013 | ralimetinib -0.01 | [10] 0 | [11] 0.015 | [12] -0.042 | [13] -0.019 | [14] -0.013 | [15] -0.004 | [16] 0.002

GTF2H4 (UniProt Q92759)
inactive: erlotinib -0.013 | [1] -0.049 | [2] -0.013 | [3] 0.037 | [4] -0.059 | [5] -0.001 | [6] 0.141 | [7] 0.056 | [8] -0.004 | IRAK-1-4 Inhibitor I -0.044 | ibrutinib 0.039 | [9] 0.003 | ralimetinib 0.058 | [10] -0.006 | [11] 0.021 | [12] 0.054 | [13] -0.014 | [14] -0.015 | [15] 0.052 | [16] 0.037

(listing goes on)

H1-4 (UniProt P10412)
inactive: erlotinib 0.005 | [1] -0.043 | [2] -0.022 | [3] -0.01 | [4] -0.012 | [5] 0.026 | [6] 0.036 | [7] -0.007 | [8] -0.004 | IRAK-1-4 Inhibitor I 0.02 | ibrutinib 0.017 | [9] -0.028 | ralimetinib -0.017 | [10] -0.032 | [11] 0.028 | [12] 0.01 | [13] 0.146 | [14] 0.029 | [15] -0.002 | [16] -0.057

GSTT1 (UniProt P30711)
inactive: erlotinib -0.01 | [1] -0.098 | [2] 0.09 | [3] 0.021 | [4] -0.038 | [5] -0.009 | [6] 0.018 | [7] 0.031 | [8] 0.037 | IRAK-1-4 Inhibitor I -0.014 | ibrutinib 0.077 | [9] -0.017 | ralimetinib -0.047 | [10] -0.036 | [11] -0.026 | [12] -0.007 | [13] 0.01 | [14] -0.014 | [15] 0.03 | [16] -0.01

HDHD2 (UniProt Q9H0R4)
inactive: erlotinib -0.001 | [1] -0.046 | [2] -0.002 | [3] 0.037 | [4] 0.009 | [5] -0.047 | [6] 0.033 | [7] 0.02 | [8] -0.025 | IRAK-1-4 Inhibitor I 0.011 | ibrutinib 0.053 | [9] 0.008 | ralimetinib 0.022 | [10] -0.012 | [11] 0.009 | [12] -0.023 | [13] 0.003 | [14] -0.035 | [15] -0.002 | [16] -0.014

HEATR5A (UniProt Q86XA9)
inactive: erlotinib 0.219 | [1] 0.375 | [2] -0.002 | [3] -0.062 | [4] -0.017 | [5] -0.003 | [6] -0.01 | [7] -0.004 | [8] 0.035 | IRAK-1-4 Inhibitor I 0.001 | ibrutinib -0.04 | [9] -0.008 | ralimetinib 0.018 | [10] -0.027 | [11] -0.038 | [12] -0.017 | [13] -0.009 | [14] 0.011 | [15] -0.012 | [16] -0.005

HDAC7 isoform 5 (UniProt Q8WUI4)
inactive: erlotinib -0.002 | [1] 0.053 | [2] 0.04 | [3] -0.013 | [4] -0.021 | [5] -0.014 | [6] -0.044 | [7] -0.062 | [8] -0.014 | IRAK-1-4 Inhibitor I -0.018 | ibrutinib 0.021 | [9] -0.009 | ralimetinib 0.003 | [10] -0.032 | [11] 0.02 | [12] 0.042 | [13] 0.034 | [14] -0.005 | [15] -0.022 | [16] 0.015
